Assay [1] deals with mouse Unc5C ectodomain (mouse) (UniProt O08747). The assay can be described thus: SPR; Unc5A-D ectodomains immobilised; hGPC3^core or mGPC3^ecto injected in a 2-fold dilution series (top 4.5 uM) with Fc control protein, Nano^glue or Nano^break kept constant at 9 uM (with hGPC3^core) or 4.5 uM (with mGPC3^ecto); both purified.
Assay [2] has as its target mouse Unc5C expressed on cells (mouse) (UniProt O08747). The assay can be described thus: cell-based binding assay (fluorescence microscopy); HEK293T cells expressing mVenus-tagged receptor; 0.5 ug purified His-tagged protein pre-clustered with anti-His, 60 min on ice; anti-mouse-Cy3; co-localisation area quantified; only the binder purified.
Assay [3] concerns the target human Unc5A isoform 1 ectodomain, lacking TSP1 (hUnc5A^iso1) (human) (UniProt Q6ZN44). The assay can be described thus: SPR; equilibrium binding at 25 C, Biacore T200; one partner biotinylated at a C-terminal Avi-tag on a streptavidin-coated CM5 chip; analyte in 2-fold dilution series; PBS or 20 mM Tris, 200 mM NaCl, 0.005% polysorbate 20, pH 7.5; apparent KD from a 1:1 model, indicative only; both purified. On the technique in general: SPR reads the build-up and loss of mass on a sensor chip optically.

Amino acid sequences for entries named in this document (tags omitted). A change or cut given only in a name is not applied to a line headed by its entry. Chains listed by the source or under a name are the forms on record and can include a tag or linker. Residues count along the entry.
UniProt O08747: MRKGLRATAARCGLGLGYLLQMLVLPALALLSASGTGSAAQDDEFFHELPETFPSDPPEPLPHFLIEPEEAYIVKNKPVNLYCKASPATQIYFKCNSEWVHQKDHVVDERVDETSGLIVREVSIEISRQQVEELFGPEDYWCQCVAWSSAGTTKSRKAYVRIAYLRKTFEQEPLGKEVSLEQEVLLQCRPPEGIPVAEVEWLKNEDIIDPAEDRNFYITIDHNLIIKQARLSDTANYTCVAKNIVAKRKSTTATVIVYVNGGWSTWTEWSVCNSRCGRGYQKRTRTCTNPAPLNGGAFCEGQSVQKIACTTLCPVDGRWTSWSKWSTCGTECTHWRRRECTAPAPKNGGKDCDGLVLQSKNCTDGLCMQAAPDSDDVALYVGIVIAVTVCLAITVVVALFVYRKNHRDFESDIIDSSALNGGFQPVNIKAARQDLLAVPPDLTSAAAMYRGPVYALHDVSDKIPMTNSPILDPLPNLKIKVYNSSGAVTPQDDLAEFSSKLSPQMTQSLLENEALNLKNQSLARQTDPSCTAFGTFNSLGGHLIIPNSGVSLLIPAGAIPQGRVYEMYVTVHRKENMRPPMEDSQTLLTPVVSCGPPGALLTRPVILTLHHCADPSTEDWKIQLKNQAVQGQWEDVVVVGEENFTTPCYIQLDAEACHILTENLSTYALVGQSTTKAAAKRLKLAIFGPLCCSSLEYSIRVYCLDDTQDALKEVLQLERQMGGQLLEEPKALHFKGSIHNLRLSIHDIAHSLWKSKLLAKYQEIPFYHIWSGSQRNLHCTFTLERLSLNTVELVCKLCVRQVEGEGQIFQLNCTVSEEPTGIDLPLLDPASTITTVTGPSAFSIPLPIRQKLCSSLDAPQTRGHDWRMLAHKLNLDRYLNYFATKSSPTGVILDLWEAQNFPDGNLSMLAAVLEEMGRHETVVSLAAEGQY
mouse Unc5C expressed on cells: residues 41-931 of O08747
mouse Unc5C ectodomain: residues 41-380 of O08747
UniProt Q6ZN44, residues 26-306: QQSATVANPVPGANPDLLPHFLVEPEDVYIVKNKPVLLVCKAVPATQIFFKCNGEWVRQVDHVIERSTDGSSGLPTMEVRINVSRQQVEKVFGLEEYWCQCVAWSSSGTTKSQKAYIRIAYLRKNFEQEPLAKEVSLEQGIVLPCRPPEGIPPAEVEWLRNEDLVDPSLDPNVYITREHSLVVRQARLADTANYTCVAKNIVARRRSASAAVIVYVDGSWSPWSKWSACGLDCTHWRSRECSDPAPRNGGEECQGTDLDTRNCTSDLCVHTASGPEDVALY
UniProt Q6UXZ4, residues 33-379: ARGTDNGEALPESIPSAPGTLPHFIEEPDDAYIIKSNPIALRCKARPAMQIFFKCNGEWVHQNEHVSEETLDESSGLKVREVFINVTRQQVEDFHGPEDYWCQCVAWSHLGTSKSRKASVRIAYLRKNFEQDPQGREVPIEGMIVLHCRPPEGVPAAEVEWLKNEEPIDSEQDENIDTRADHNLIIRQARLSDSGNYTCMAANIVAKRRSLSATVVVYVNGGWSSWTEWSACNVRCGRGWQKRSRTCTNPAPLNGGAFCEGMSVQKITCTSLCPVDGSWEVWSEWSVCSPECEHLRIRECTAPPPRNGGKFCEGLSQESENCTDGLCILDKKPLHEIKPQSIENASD
UniProt Q8K1S4, residues 26-359: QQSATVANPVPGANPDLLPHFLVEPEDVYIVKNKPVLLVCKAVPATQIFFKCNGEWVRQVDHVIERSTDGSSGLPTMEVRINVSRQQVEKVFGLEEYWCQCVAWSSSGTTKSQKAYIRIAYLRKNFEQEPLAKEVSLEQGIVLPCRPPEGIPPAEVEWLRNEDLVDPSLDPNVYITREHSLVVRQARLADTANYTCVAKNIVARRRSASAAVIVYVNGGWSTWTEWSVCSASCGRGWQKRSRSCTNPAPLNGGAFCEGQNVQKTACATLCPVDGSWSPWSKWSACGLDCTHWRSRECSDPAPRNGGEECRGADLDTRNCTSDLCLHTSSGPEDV
UniProt P51654: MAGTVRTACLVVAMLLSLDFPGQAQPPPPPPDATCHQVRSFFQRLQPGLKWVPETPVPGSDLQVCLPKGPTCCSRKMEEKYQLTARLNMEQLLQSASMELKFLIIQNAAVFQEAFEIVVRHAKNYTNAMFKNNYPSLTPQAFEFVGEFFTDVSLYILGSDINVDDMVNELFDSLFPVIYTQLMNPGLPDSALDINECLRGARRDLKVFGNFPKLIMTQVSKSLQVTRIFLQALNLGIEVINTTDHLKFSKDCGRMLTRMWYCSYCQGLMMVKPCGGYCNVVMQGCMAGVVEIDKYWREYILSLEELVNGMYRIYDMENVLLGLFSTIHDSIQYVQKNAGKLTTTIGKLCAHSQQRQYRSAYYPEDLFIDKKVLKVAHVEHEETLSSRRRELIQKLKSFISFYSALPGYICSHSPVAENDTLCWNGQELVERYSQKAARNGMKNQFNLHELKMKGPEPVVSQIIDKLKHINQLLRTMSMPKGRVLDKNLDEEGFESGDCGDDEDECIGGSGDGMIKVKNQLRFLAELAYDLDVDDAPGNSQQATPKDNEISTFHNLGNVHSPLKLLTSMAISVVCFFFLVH
biotinylated hGPC3^core (residues 32-483) coupled to streptavidin agarose: residues 32-483 of P51654
hGPC3^core N241Q mutant (hGPC3^coreUG) (P51654, form named): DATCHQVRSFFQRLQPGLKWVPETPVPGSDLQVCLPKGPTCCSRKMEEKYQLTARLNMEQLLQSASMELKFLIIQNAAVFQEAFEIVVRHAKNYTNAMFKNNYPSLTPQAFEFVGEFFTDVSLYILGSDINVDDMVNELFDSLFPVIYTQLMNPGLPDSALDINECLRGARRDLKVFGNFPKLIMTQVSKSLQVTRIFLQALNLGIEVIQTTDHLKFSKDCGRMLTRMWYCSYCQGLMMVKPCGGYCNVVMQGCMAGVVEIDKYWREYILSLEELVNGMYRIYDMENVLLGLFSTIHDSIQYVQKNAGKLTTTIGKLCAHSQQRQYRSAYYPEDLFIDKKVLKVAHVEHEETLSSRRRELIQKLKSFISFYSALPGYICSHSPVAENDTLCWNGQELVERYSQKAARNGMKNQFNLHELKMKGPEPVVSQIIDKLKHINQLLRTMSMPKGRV
UniProt Q8CFZ4, residues 31-559: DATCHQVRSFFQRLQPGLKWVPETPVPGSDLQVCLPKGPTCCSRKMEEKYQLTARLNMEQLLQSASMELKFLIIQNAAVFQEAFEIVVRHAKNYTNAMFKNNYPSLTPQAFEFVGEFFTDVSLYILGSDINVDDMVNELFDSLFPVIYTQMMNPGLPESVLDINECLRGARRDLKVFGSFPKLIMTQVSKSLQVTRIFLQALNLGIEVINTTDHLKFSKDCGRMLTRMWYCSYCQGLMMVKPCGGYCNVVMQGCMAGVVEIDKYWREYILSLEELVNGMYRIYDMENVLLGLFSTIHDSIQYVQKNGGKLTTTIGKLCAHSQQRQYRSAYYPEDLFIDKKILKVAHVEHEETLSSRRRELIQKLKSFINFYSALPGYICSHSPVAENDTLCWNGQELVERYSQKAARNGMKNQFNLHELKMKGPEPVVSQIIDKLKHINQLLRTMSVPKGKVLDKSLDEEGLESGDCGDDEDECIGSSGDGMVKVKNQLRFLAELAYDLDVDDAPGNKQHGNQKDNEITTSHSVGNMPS
UniProt Q8IZJ1, residues 27-377: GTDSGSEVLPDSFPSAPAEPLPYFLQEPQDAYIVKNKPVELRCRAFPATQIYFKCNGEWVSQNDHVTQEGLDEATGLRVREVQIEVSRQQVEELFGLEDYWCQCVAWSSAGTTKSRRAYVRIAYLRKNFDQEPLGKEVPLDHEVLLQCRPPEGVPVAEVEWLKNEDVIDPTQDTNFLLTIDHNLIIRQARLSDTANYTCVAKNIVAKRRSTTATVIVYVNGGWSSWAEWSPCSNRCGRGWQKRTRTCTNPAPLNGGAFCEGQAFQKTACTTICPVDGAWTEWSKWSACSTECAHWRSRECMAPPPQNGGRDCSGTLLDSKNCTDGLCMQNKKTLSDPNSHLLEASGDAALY

In assay [4] the target is mouse Unc5C ectodomain (mouse) (UniProt O08747). The assay is described as above.
The target of assay [5] is human Unc5D (residues 33-379) alkaline phosphatase fusion (Unc5D-AP) (human) (UniProt Q6UXZ4). The assay can be described thus: ELISA; Unc5D-AP conditioned medium captured by anti-AP in 96-well plates as bait; culture medium of 95 ecto-Fc prey proteins added with anti-human IgG1-HRP; 4 h at room temperature; absorbance at 650 nm; in duplicate. A general note: ELISA stands for enzyme-linked immunosorbent assay.

Assay [6] concerns the target mouse Unc5A ectodomain, residues 1-359 (mUnc5A^ecto) (mouse) (UniProt Q8K1S4). The assay can be described thus: SPR; equilibrium binding at 25 C, Biacore T200; one partner biotinylated at a C-terminal Avi-tag on a streptavidin-coated CM5 chip; analyte in 2-fold dilution series; PBS or 20 mM Tris, 200 mM NaCl, 0.005% polysorbate 20, pH 7.5; apparent KD from a 1:1 model, indicative only; both purified.

Assay [7] concerns the target biotinylated hGPC3^core (residues 32-483) coupled to streptavidin agarose (human) (UniProt P51654). The assay can be described thus: pull-down; biotinylated hGPC3^core on streptavidin agarose; hUnc5B^Ecto mixed with nanobody at 1:1, 1:5 and 1:10 molar ratios in 20 mM Tris-HCl pH 7.5, 200 mM NaCl, 1% BSA, 3 h; SDS-PAGE; both purified.

No constants are given. Whether binding was seen depends on the method and setting. Some binding calls cover weakened binding; strength is not graded here.

As for “human glypican-3 core domain, residues 32-483 (hGPC3^core) (from UniProt P51654 32-483) (domain or fragment)”, the binding result is “binds” in assay [1], “binds” in assay [2], “no binding” in assay [3] and “binds” in assay [4].

Regarding “human GPC3 (residues 25-563) Fc-tagged prey (from UniProt P51654 25-563) (Fc fusion)”, the binding result in assay [5] is listed as “binds”.

In the case of “murine GPC3 ectodomain, residues 31-559 (mGPC3^ecto) (from UniProt Q8CFZ4 31-559) (domain or fragment)”, the binding entry in assay [1] is recorded as “binds”.

As for “hGPC3^core N241Q mutant (hGPC3^coreUG) (from UniProt P51654 32-483) (domain or fragment)”, the binding entry in assay [2], in assay [6] and in assay [4] was “no binding” throughout.

As for “human Unc5B ectodomain (hUnc5B^ecto) (from UniProt Q8IZJ1 27-377) (domain or fragment)”, the binding result in assay [7] is given as “binds”.

These data come from PMC9596381.
